27 targets from the supplement of paper PMC10849652 can be followed below.

Amino acid sequences for entries named in this document (tags omitted). A change or cut given only in a name is not applied to a line headed by its entry.
UniProt Q16342: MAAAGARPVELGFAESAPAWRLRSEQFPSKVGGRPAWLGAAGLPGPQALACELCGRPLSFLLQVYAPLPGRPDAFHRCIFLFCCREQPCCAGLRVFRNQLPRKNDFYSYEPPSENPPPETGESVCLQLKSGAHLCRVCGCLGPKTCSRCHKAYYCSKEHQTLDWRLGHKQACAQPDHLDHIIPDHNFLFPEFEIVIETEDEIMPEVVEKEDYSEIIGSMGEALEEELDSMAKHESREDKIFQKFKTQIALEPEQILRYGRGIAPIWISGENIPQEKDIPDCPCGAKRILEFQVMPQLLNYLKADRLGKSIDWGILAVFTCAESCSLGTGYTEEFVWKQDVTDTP
UniProt O60825: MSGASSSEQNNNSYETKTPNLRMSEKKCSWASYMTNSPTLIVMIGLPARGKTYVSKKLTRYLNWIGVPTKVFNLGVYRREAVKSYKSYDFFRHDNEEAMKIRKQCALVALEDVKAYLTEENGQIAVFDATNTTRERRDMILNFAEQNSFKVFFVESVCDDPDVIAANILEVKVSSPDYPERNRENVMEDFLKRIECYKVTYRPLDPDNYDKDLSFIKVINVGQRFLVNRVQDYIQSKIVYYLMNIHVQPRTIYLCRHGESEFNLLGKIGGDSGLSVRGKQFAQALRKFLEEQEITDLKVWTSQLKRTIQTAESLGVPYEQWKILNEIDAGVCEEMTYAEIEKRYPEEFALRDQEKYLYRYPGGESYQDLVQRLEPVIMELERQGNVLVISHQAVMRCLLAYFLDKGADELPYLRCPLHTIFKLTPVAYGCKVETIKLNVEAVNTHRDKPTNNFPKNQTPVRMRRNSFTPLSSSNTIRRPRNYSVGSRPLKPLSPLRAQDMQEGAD
UniProt Q9Y5K3: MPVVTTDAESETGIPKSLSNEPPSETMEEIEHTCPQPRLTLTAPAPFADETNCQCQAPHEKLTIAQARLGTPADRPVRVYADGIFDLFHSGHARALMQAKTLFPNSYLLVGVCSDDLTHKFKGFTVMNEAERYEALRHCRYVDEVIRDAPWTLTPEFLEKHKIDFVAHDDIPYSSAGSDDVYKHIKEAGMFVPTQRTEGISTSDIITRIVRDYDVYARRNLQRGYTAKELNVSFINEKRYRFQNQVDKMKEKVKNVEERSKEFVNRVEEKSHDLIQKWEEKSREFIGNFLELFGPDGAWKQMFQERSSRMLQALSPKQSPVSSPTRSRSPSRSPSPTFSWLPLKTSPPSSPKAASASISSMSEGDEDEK
UniProt O95453: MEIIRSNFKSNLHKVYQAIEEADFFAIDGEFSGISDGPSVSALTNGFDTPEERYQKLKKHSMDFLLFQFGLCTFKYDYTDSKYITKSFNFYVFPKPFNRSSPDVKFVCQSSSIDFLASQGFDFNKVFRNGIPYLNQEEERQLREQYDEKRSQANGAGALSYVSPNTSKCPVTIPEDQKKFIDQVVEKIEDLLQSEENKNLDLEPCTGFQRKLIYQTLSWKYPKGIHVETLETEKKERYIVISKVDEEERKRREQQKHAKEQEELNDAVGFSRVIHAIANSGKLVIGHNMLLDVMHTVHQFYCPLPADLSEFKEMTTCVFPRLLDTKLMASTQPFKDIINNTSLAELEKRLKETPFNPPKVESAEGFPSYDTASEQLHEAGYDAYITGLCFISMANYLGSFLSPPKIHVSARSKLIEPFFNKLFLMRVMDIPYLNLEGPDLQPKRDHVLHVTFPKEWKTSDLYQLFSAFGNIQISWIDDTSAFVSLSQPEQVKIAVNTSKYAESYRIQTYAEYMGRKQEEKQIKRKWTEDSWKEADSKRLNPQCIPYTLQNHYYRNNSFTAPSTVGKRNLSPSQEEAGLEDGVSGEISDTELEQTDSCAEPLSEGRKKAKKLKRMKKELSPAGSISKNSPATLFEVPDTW
UniProt P22061: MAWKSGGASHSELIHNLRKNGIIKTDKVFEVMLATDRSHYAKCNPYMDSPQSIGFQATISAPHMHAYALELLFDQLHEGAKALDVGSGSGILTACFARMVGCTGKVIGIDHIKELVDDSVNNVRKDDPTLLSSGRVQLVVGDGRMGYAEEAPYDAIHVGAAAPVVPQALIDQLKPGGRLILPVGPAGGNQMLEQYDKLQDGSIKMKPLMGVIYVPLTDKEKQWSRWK
UniProt Q8WW12: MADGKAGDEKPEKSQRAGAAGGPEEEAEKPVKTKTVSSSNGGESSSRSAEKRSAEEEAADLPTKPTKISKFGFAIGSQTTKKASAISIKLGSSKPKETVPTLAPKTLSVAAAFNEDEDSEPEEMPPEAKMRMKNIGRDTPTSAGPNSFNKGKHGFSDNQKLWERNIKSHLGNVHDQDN
UniProt P08237: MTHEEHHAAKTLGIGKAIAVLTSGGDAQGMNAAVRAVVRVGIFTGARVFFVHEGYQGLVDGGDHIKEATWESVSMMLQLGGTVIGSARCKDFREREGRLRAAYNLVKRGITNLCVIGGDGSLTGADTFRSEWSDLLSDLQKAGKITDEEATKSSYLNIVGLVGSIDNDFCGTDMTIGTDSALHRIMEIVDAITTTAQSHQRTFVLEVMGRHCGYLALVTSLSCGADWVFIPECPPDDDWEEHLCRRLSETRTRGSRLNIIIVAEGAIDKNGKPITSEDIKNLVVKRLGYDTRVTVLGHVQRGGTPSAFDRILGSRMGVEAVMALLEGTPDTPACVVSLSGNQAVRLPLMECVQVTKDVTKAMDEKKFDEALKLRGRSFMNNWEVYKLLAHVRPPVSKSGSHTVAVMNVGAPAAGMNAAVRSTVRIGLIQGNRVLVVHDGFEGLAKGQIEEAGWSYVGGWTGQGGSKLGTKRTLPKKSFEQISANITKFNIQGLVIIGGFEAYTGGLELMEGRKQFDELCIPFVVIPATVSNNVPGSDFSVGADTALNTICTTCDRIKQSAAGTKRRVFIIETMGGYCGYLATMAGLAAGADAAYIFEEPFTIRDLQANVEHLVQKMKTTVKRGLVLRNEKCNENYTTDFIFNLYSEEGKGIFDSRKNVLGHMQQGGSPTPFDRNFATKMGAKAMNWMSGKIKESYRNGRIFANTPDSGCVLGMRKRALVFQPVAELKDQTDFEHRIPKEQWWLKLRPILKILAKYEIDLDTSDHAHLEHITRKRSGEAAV
UniProt Q15121, whole entry, looked up: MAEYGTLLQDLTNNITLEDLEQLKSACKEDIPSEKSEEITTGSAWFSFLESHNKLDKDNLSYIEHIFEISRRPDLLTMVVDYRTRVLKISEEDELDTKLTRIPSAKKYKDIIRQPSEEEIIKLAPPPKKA
UniProt Q8NCN5: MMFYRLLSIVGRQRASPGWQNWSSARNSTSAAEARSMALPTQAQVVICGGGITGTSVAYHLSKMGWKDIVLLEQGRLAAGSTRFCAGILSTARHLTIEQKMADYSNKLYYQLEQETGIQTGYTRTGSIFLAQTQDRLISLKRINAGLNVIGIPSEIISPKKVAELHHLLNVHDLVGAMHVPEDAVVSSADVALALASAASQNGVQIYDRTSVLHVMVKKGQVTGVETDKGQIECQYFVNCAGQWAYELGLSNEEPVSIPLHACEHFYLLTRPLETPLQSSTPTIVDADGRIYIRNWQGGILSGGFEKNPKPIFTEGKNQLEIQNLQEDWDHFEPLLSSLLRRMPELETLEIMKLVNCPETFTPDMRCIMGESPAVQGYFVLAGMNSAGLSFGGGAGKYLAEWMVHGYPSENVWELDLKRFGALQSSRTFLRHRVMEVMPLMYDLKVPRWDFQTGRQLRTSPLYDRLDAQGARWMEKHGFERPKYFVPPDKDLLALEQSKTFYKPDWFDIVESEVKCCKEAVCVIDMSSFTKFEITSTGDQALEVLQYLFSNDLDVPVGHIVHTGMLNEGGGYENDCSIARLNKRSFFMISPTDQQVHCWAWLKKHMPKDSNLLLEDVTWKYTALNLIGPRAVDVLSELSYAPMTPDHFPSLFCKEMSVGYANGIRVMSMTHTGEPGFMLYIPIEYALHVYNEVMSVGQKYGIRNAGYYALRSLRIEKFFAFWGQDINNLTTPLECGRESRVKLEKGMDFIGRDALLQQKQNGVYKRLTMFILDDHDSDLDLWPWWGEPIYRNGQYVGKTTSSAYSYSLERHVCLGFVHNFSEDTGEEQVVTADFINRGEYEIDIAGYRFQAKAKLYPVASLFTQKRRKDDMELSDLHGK
UniProt Q5VU43: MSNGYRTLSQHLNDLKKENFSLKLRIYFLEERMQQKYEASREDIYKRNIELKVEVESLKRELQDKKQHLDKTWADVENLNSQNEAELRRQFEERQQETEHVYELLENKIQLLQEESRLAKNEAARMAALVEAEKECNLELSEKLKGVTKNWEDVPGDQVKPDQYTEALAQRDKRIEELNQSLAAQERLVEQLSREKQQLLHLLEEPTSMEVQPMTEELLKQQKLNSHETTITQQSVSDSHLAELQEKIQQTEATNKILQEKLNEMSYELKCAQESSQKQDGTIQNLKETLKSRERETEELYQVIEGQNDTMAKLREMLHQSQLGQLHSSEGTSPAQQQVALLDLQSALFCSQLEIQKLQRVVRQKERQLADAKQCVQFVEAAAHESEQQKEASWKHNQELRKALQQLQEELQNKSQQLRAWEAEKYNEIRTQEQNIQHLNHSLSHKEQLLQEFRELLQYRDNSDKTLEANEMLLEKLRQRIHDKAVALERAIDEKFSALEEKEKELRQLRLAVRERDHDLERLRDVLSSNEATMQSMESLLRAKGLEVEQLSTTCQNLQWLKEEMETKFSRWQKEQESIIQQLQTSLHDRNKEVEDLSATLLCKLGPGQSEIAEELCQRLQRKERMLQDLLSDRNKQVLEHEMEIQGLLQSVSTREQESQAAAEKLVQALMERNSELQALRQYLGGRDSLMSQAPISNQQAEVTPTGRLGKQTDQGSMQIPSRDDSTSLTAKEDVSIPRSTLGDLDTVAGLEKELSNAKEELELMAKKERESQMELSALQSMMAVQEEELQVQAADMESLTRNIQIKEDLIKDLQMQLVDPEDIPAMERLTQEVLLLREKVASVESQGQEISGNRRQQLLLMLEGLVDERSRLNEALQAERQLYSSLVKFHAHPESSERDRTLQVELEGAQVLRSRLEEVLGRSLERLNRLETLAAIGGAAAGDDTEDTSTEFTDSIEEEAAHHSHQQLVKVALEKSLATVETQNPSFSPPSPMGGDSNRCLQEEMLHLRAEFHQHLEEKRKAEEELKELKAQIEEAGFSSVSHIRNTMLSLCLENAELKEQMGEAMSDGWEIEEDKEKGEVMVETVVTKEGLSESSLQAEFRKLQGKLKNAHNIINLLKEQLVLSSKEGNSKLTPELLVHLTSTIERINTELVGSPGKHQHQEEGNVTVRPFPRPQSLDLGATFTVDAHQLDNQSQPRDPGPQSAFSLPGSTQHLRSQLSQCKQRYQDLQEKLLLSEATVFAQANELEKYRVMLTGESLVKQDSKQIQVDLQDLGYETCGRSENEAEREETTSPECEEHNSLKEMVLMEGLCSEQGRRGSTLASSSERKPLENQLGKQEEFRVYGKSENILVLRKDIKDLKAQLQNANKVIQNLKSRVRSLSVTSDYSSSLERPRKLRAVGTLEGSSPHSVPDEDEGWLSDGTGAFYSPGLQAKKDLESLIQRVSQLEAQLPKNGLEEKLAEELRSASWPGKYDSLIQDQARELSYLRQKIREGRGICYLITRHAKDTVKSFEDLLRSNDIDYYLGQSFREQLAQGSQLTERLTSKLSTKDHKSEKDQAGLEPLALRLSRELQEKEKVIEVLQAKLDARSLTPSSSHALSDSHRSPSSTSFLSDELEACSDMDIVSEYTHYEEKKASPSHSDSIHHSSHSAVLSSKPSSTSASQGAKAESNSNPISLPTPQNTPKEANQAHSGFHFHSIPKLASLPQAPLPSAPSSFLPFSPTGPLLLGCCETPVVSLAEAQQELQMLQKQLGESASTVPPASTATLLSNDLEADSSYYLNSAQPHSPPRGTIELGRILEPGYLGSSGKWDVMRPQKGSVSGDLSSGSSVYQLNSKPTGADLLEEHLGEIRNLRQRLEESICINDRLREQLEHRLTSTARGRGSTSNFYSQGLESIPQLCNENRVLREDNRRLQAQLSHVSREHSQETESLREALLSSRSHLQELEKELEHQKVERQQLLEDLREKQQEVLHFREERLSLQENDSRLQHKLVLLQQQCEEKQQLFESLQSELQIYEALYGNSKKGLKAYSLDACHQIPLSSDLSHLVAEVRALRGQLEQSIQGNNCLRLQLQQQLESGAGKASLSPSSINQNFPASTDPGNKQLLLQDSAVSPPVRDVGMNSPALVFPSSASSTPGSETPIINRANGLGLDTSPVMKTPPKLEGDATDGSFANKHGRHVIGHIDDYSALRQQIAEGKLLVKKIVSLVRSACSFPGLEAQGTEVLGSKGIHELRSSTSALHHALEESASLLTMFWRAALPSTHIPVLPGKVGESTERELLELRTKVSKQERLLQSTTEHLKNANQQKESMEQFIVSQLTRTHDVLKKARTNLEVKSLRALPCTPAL
UniProt P0DJ07: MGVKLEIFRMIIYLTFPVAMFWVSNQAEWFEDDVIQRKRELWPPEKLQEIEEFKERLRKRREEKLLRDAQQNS

The list shows a part of the results.

Holding throughout (assay): log2 fold change, soluble protein after heating vs DMSO (PISA); higher = thermal stabilisation; K562 lysate, 10 uM; active = over 0.2 and 3.5 SD of the protein, either way, in both replicates (recomputed)
Compound in assay [1]: NCC(=O)Nc1ccc(-n2nc(C(F)(F)F)cc2-c2ccc3c(ccc4ccccc43)c2)cc1
An outline of the steps: (§1)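 Quantification was by TMTpro 16plex LC-MS/MS with equalised channel sums, applied to the supernatant after 21,000xg for 90 min. Samples were crude K562 extract at 1 mg/mL protein in PBS pH 7.4 with 1 mM MgCl2, treated with 10 μM compound for 30 min, heated for 3 min across 48°C-58°C, pooled and brought to 0.5% NP-40 at 4°C. Values are log-two fold changes in thermal stability relative to solvent controls, from duplicates.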

Compound in the next assay: O=C(CCCCCCC(=O)Nc1ccccc1)NO [vorinostat]
The method, boiled down: as §1

Compound in the next assay: O=C(O)c1ccc2c(c1)nc(Nc1cccc(Cl)c1)c1ccncc12 [silmitasertib]
The method, boiled down: as §1

Compound in assay [2]: O=C1NC(=O)C(c2cnc3ccccn23)=C1c1cn2c3c(cc(F)cc13)CN(C(=O)N1CCCCC1)CC2
The method, boiled down:
as §1

Compound in another assay: c1cn2cc(-c3ccc4cn[nH]c4c3)nc(Nc3ccc(N4CCOCC4)cc3)c2n1 [entospletinib]
An outline of the steps: as §1

Take PDS5A (UniProt Q29RF7): the log2 fold change in assay [1] was inactive: -0.001; with vorinostat, active: -0.525; with silmitasertib, inactive: 0.073; in assay [2] it was inactive: -0.01; in the assay with entospletinib, inactive: 0.047.
Turning to PDCD2 (UniProt Q16342), the log2 fold change in assay [1] is inactive: 0.005; with vorinostat, inactive: -0.093; with silmitasertib it was inactive: 0.005; in assay [2], inactive: -0.035; with entospletinib, inactive: 0.014.
For PFKFB2 (UniProt O60825), the log2 fold change was inactive: -0.007 in assay [1]; active: -0.39 with vorinostat; inactive: 0.033 with silmitasertib; inactive: 0.026 in assay [2]; inactive: 0.018 in the assay with entospletinib.
Take PCK2 (UniProt Q16822): the log2 fold change in assay [1] was inactive: 0.013; with vorinostat, inactive: -0.127; with silmitasertib, inactive: -0.048; in assay [2], inactive: -0.059; with entospletinib it was inactive: 0.015.
The corresponding values for PCYT1B (UniProt Q9Y5K3) are inactive: -0.03, inactive: 0.064, inactive: -0.062, inactive: -0.027 and inactive: 0.002.
The corresponding values for PARN (UniProt O95453) are inactive: -0.041, inactive: 0.006, inactive: -0.002, inactive: -0.002 and inactive: -0.016.
The corresponding values for PCMT1 isoform 2 (UniProt P22061) are inactive: -0.009, inactive: -0.023, inactive: 0.004, inactive: 0.006 and inactive: 0.006.
For the target PCYT2 isoform 3 (UniProt Q99447), the log2 fold change in assay [1] is inactive: 0.012; with vorinostat, inactive: -0.168; in the assay with silmitasertib, inactive: 0.019; in assay [2] it was inactive: -0.005; with entospletinib, inactive: 0.04.
Consider PDHX (UniProt O00330), for which the log2 fold change in assay [1] was inactive: 0.026; with vorinostat it was inactive: 0.018; in the assay with silmitasertib, inactive: -0.023; in assay [2], inactive: -0.012; with entospletinib, inactive: 0.025.
The corresponding values for PDCD4 (UniProt Q53EL6) are inactive: 0.004, active: -0.378, inactive: 0.014, inactive: 0.003 and inactive: 0.038.
The corresponding values for PCNP (UniProt Q8WW12) are inactive: 0.058, inactive: 0.153, inactive: -0.042, inactive: 0.007 and inactive: 0.011.
The corresponding values for PFKM isoform 3 (UniProt P08237) are inactive: 0.004, inactive: -0.06, inactive: -0.075, inactive: -0.006 and inactive: 0.021.
PER3 isoform 2 (UniProt P56645): the log2 fold change in assay [1] is inactive: -0.164; with vorinostat, inactive: 0.06; with silmitasertib it was inactive: -0.05; in assay [2], inactive: -0.021; with entospletinib it was inactive: -0.009.
Consider PEA15 isoform 2 (UniProt Q15121), for which the log2 fold change was inactive: -0.061 in assay [1]; inactive: 0.143 in the assay with vorinostat; inactive: -0.038 in the assay with silmitasertib; inactive: 0.011 in assay [2]; inactive: -0.011 with entospletinib.
The corresponding values for PDPR (UniProt Q8NCN5) are inactive: 0.004, inactive: 0.119, inactive: 0.037, inactive: -0.032 and inactive: 0.058.
The like results for PGGHG (UniProt Q32M88) were, in that order, inactive: -0.011, inactive: 0.026, inactive: -0.045, inactive: -0.035 and inactive: 0.
The like results for PDE4DIP isoform 4 (UniProt Q5VU43) were, in that order, inactive: 0.077, inactive: 0.029, inactive: -0.029, inactive: 0.057 and inactive: -0.025.
In the case of PDIA4 (UniProt P13667), the log2 fold change in assay [1] is inactive: 0.001; with vorinostat, inactive: 0.119; in the assay with silmitasertib, inactive: -0.011; in assay [2], inactive: 0.021; with entospletinib, inactive: 0.004.
The corresponding values for PARP14 (UniProt Q460N5) are inactive: -0.006, active: -0.391, inactive: 0.009, inactive: 0.149 and inactive: -0.014.
The like results for PEX11B (UniProt O96011) were, in that order, inactive: -0.016, inactive: 0.066, inactive: 0.014, inactive: -0.031 and inactive: 0.043.
The corresponding values for PDLIM4 (UniProt P50479) are inactive: 0.05, inactive: -0.041, inactive: 0.016, inactive: 0.028 and inactive: -0.017.
Take PARVB (UniProt Q9HBI1): the log2 fold change was inactive: -0.036 in assay [1]; inactive: -0.088 with vorinostat; inactive: 0.045 with silmitasertib; inactive: -0.04 in assay [2]; inactive: -0.006 in the assay with entospletinib.
Turning to PARP2 (UniProt Q9UGN5), the log2 fold change in assay [1] was inactive: 0.051; with vorinostat, inactive: -0.18; with silmitasertib, inactive: -0.088; in assay [2] it was inactive: 0.051; in the assay with entospletinib, inactive: 0.032.
Turning to PDCL (UniProt Q13371), the log2 fold change is inactive: -0.01 in assay [1]; inactive: -0.083 with vorinostat; inactive: 0.003 with silmitasertib; inactive: -0.009 in assay [2]; inactive: -0.004 with entospletinib.
The corresponding values for PAXX (UniProt Q9BUH6) are inactive: -0.019, inactive: 0.031, inactive: -0.018, inactive: -0.026 and inactive: 0.019.
PDAP1 (UniProt Q13442): the log2 fold change in assay [1] is inactive: 0.014; with vorinostat it was inactive: 0.118; in the assay with silmitasertib it was inactive: 0.005; in assay [2], inactive: -0.004; with entospletinib it was inactive: -0.027.
The corresponding values for PET100 (UniProt P0DJ07) are inactive: 0.008, inactive: 0.131, inactive: 0.019, inactive: -0.02 and inactive: -0.163.
